Results as given in the M2OR odorant receptor database.
Changes are numbered by the printed parent chain. The list shows a part of the results. The calls were merged from several studies; some rest on single wells.

Chains of the proteins cited; added tags and fusions are not shown. Chains listed by the source or under a name are the forms on record and can include a tag or linker.
O11H2, as listed by the source: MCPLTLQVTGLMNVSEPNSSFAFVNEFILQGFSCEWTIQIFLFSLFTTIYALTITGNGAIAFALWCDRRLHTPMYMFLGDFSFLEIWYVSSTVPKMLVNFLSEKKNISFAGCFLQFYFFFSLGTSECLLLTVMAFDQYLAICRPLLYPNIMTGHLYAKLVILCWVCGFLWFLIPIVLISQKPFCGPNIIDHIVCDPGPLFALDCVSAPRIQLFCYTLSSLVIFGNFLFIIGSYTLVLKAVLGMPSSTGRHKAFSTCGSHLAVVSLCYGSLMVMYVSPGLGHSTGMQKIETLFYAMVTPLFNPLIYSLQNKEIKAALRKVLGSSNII

Experiments:
Details in all cases: stereoisomer not certain
O10J3 = test system: T1, O10J3
T1 sequence (whole entry): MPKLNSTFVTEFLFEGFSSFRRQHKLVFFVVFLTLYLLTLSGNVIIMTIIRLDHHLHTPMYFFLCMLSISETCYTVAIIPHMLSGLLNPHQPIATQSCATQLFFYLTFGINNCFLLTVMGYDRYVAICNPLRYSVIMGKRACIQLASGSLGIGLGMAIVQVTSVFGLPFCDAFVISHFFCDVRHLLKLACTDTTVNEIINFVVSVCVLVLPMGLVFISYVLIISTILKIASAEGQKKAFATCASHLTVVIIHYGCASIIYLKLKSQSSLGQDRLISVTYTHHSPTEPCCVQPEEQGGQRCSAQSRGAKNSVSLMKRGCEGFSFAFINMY
Outline: (§1)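 Each entry records the cell line, G-protein, co-transfected protein and tags used. Methods varied with the source, often transient luciferase assays in mammalian cell lines. A receptor–molecule pair is called responsive (active) if the original authors judged its signal statistically different from baseline and non-responsive (inactive) otherwise.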

O10J5 = test system: T2, O10J5
T2 sequence (whole entry): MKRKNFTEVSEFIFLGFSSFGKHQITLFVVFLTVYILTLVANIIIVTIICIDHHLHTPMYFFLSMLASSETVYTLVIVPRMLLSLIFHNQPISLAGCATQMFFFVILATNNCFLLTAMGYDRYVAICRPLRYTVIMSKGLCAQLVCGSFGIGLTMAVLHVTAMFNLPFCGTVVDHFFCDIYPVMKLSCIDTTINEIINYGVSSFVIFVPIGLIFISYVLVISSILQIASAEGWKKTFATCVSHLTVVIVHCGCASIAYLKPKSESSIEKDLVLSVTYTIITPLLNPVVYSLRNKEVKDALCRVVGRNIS
Outline: as §1

O10P1 = test system: T3, O10P1
T3 sequence (whole entry): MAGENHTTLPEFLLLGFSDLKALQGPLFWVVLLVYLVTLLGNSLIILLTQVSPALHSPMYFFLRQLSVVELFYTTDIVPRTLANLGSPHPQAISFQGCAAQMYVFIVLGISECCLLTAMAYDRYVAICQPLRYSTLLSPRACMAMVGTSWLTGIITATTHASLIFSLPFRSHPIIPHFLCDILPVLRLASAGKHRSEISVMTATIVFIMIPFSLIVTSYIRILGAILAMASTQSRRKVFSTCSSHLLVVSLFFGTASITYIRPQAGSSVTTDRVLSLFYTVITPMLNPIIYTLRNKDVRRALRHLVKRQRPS
Outline: as §1

O10Q1 = test system: T4, O10Q1
T4 sequence (whole entry): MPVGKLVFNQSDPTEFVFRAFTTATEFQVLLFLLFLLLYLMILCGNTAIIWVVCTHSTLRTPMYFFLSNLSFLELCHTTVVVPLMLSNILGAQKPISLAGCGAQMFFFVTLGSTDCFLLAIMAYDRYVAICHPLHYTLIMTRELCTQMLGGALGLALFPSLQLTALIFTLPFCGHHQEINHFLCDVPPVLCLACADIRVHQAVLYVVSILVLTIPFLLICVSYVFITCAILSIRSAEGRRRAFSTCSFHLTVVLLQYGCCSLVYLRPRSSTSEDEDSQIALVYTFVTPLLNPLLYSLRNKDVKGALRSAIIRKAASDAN
Outline: as §1

O10R2 [1] = test system: T5, O10R2
T5 sequence (whole entry): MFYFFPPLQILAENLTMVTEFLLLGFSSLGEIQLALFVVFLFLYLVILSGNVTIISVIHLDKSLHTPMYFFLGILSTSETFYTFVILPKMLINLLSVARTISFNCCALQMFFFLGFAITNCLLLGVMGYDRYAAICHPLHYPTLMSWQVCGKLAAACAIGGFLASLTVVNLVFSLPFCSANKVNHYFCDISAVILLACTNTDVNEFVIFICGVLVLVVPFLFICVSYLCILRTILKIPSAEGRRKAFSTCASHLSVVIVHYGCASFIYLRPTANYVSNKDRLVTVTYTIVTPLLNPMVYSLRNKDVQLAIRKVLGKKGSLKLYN
Outline: as §1

O10R2 [2] = test system: T6, O10R2; remark: listed apart in the source
T6 sequence (whole entry): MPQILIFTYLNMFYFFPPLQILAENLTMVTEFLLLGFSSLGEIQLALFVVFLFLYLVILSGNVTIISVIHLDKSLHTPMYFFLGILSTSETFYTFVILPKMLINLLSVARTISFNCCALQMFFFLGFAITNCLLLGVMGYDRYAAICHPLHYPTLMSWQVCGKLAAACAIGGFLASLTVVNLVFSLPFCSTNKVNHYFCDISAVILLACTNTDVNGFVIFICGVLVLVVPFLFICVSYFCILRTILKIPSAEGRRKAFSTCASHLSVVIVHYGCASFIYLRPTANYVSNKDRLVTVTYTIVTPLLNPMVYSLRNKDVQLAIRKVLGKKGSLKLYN
Outline: as §1

O10V1 = test system: T7, O10V1
T7 sequence (whole entry): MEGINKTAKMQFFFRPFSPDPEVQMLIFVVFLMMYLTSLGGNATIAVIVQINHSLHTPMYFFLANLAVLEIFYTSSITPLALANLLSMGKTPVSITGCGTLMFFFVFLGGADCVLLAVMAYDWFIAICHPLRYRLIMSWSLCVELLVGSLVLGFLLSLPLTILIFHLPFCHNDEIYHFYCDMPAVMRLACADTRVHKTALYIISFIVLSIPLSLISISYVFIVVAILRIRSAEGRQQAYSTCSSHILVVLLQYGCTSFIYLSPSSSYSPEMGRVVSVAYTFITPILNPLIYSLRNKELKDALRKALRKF
Outline: as §1

O10W1 = test system: T8, O10W1
T8 sequence (whole entry): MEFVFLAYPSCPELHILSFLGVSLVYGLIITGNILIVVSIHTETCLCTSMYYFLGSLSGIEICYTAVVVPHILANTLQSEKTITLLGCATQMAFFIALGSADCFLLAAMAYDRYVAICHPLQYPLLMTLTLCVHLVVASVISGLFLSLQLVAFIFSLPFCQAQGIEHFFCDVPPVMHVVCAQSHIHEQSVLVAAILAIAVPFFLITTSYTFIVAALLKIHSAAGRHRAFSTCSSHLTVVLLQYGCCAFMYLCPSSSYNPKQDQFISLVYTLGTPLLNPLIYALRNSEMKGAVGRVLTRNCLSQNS
Outline: as §1

O10X1 = test system: T9, O10X1
T9 sequence (whole entry): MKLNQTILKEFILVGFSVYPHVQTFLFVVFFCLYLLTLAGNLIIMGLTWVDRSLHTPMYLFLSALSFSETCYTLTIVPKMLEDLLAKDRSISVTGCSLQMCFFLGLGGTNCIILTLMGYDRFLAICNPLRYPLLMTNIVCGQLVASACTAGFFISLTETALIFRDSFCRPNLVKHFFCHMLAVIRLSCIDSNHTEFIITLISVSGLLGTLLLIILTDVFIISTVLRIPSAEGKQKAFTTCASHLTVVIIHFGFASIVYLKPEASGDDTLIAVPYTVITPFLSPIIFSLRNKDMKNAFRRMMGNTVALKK
Outline: as §1

O11G2 = test system: T10, O11G2
T10 sequence (whole entry): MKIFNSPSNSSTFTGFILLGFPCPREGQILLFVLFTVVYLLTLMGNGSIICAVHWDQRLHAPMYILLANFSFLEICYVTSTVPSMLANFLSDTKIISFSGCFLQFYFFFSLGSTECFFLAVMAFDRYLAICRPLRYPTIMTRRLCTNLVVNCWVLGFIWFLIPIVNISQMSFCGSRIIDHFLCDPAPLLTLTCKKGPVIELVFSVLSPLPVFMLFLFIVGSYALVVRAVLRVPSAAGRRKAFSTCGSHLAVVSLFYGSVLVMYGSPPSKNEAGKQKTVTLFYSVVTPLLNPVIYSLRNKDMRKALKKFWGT
Outline: as §1

O11H1 [3] = test system: T11, O11H1
T11 sequence (whole entry): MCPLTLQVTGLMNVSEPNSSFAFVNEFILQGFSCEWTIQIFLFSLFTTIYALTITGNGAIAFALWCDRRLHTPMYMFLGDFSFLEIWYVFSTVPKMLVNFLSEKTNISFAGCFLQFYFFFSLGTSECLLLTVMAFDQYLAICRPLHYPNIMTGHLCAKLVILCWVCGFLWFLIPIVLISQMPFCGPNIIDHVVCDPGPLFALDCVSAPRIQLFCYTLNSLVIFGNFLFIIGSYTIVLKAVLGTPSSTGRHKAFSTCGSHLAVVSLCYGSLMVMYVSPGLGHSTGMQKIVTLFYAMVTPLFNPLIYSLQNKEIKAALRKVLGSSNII
Outline: as §1

O11H1 [4] = test system: T12, O11H1; remark: listed apart in the source
T12 sequence (whole entry): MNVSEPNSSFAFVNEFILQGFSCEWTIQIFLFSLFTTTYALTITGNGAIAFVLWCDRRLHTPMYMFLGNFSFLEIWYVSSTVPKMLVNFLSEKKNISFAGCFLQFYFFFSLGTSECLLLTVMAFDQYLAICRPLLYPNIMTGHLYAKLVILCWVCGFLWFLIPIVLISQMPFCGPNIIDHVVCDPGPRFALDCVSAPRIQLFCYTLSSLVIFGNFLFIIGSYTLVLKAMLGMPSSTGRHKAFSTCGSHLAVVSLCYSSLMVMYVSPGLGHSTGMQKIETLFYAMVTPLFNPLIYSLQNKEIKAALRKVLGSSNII
Outline: as §1

O11H2 = test system: T13, O11H2
T13 sequence (whole entry): T11 sequence (whole entry) with F90S, T105K, H146L, C156Y, M181K, V192I, N218S, I235L, T243M, V289E
Outline: as §1

O11H4 = test system: T14, O11H4
T14 sequence (whole entry): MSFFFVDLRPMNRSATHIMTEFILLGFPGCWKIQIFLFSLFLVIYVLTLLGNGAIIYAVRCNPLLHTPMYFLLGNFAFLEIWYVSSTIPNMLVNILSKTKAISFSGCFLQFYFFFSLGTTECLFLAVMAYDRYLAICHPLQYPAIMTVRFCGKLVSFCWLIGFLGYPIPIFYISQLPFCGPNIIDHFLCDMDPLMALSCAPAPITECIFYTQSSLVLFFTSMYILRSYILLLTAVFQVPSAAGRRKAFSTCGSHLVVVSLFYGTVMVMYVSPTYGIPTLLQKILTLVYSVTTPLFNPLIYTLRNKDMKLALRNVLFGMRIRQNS
Outline: as §1

O11L1 = test system: T15, O11L1
T15 sequence (whole entry): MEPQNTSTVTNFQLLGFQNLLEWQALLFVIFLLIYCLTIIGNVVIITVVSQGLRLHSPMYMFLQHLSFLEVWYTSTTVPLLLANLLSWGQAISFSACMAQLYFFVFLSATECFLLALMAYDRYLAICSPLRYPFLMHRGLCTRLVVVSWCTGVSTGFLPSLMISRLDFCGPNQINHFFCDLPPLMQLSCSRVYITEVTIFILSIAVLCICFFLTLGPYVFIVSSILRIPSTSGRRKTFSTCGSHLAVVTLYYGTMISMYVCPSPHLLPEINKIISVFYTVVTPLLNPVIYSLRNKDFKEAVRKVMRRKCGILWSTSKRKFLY
Outline: as §1

O12D2 = test system: T16, O12D2
T16 sequence (whole entry): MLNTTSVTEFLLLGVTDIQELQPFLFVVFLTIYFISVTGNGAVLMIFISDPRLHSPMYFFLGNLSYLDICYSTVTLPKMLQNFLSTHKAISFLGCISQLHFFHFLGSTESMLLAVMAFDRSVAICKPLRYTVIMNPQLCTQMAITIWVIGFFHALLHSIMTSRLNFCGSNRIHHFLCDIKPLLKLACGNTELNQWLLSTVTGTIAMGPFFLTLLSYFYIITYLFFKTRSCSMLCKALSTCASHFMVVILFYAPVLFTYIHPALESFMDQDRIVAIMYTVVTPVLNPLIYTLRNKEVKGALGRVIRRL
Outline: as §1

O13C3 = test system: T17, O13C3
T17 sequence (whole entry): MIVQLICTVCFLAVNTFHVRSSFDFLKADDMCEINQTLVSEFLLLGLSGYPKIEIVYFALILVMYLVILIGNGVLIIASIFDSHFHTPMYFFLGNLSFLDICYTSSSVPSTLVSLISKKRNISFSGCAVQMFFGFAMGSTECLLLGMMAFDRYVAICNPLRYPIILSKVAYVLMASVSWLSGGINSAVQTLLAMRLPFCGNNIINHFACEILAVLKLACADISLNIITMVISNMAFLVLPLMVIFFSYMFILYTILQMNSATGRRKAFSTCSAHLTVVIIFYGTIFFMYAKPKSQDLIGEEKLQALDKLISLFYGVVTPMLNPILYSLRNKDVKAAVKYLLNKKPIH
Outline: as §1

Measured: odorant receptor agonist call

O=C1CCCCCCCCCCCCCCO1
inactive: all assays above

C=CCSCC=C
inactive: all assays above

CC(=O)C(C)=O
inactive: all assays above

CC(C)C(=O)O
inactive: all assays above

COC(=O)c1ccccc1O
inactive: all assays above

C=CCc1ccc(OC)c(OC)c1
inactive: all assays above
